Laboratory results: article doi:10.1101/2021.01.18.427104
No constants are given. Whether binding was seen depends on the method and setting. For part of these data: Binding seen in cells or lysates may run through a third protein. Some binding calls cover weakened binding; strength is not graded here. For part of these data: Where a sequence is shown, tags or fusion partners need not be part of it.

Amino acid sequences for entries named in this document (tags omitted).
UniProt P0C746, whole entry: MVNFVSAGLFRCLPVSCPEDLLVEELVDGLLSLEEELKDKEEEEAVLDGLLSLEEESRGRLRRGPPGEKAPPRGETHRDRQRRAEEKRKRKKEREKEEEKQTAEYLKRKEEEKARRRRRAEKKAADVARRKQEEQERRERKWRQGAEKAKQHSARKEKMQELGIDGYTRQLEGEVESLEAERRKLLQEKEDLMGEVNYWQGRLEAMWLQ
UniProt P26368, whole entry: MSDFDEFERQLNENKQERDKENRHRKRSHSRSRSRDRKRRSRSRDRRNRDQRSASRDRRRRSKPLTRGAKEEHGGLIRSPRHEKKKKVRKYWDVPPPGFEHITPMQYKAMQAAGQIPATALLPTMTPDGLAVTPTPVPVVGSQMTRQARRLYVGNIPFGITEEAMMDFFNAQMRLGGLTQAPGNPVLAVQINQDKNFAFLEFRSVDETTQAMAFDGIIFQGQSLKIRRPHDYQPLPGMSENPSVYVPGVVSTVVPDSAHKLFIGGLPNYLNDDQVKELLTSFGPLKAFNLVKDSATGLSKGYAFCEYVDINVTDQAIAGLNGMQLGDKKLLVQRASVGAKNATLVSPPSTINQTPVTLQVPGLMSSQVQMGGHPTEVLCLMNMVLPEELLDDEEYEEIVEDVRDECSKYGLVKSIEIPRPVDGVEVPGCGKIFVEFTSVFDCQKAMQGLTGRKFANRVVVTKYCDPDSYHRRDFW

Experiments:
[1] = target: HBZ (HTLV-1), yeast two-hybrid clones (HTLV-1) (UniProt P0C746); assay: two-hybrid
[2] = target: U2AF65, Gaussia luciferase fragment fusion (human), P26368; assay: split reporter; conditions: remark: other sources report otherwise
[3] = target: Tax (HTLV-1), Gaussia luciferase fragment fusion (HTLV-1) (UniProt P03409); assay: split reporter

B1: complementary factor for APOBEC-1 (A1CF), yeast two-hybrid clone (protein, UniProt Q9NQ94 1-594)
chain: MESNHKSGDGLSGTQKEAALRALVQRTGYSLVQENGQRKYGGPPPGWDAAPPERGCEIFIGKLPRDLFEDELIPLCEKIGKIYEMRMMMDFNGNNRGYAFVTFSNKVEAKNAIKQLNNYEIRNGRLLGVCASVDNCRLFVGGIPKTKKREEILSEMKKVTEGVVDVIVYPSAADKTKNRGFAFVEYESHRAAAMARRKLLPGRIQLWGHGIAVDWAEPEVEVDEDTMSSVKILYVRNLMLSTSEEMIEKEFNNIKPGAVERVKKIRDYAFVHFSNREDAVEAMKALNGKVLDGSPIEVTLAKPVDKDSYVRYTRGTGGRGTMLQGEYTYSLGQVYDPTTTYLGAPVFYAPQTYAAIPSLHFPATKGHLSNRAIIRAPSVREIYMNVPVGAAGVRGLGGRGYLAYTGLGRGYQVKGDKREDKLYDILPGMELTPMNPVTLKPQGIKLAPQILEEICQKNNWGQPVYQLHSAIGQDQRQLFLYKITIPALASQNPAIHPFTPPKLSAFVDEAKTYAAEYTLQTLGIPTDGGDGTMATAAAAATAFPGYAVPNATAPVSAAQLKQAVTLGQDLAAYTTYEVYPTFAVTARGDGYGTF
[1]
  binding: binds

B2: U2AF35, Gaussia luciferase fragment fusion, Q01081 1-240 (protein)
chain: MAEYLASIFGTEKDKVNCSFYFKIGACRHGDRCSRLHNKPTFSQTIALLNIYRNPQNSSQSADGLRCAVSDVEMQEHYDEFFEEVFTEMEEKYGEVEEMNVCDNLGDHLVGNVYVKFRREEDAEKAVIDLNNRWFNGQPIHAELSPVTDFREACCRQYEMGECTRGGFCNFMHLKPISRELRRELYGRRRKKHRSRSRSRERRSRSRDRGRGGGGGGGGGGGGRERDRRRSRDRERSGRF
[2]
  binding: binds

B3: U2AF35, Gaussia luciferase fragment fusion (protein, UniProt Q01081 1-240)
chain: B2 chain
[3]
  binding: no binding
